Values from PubChem BioAssay AID686937 (Drosophila RNAi Screening Center, 2013).
Assay: 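Genes whose loss weakens secretory pathway function in fly cells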 (primary screen). System: Drosophila S2 cells expressing secreted horseradish peroxidase. Knock-down reagent: long dsRNA against Drosophila genes. Time to read-out: about 5.5 days (5 days dsRNA, then 12 h reporter induction). Challenge: reporter expression induced after 5 days of dsRNA, read 12 h later; inducer not stated. Measurement: 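After 5 days of dsRNA and 12 h of reporter induction, medium peroxidase read by chemiluminescence and scored as per-plate z-score; higher values mean more reporter released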. Reading the numbers: z-score: higher = more reporter secreted into medium.
The deposit covers about 23,000 reagents; shown is an unselected part of those that have a named target and a result. 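Reduced-secretion tags in replicate 1 do not always agree with the z-scores; no criterion for assigning the tags was given.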 Names joined by + are all predicted targets of the reagent. Not stated in the record: the amount of reagent.

Gene	amplicon	z-score, replicate 1	z-score, replicate 2	z-score, replicate 3	z-score, replicate 4	phenotype, replicate 1
CG6830	DRSC16124	0.02	0.42			
lncRNA:CR32661 + lncRNA:CR43157	DRSC19794	0.27	0.24			
Gr21a	DRSC00366	0.13	-0.02			
CG8907	DRSC16453	0.31	0.3			
CG33189	DRSC21427	-0.09	-0.2			
CG7702	DRSC16293	0.26	0.34			
cdm	DRSC16213	0.16	0.5			
CR40282	DRSC07814	0.13	0.29			
Cam	DRSC07353	0.19	0.28	-0.1	-0.09	
Cam	DRSC07354	0.2	0.24			
CG5866	DRSC15900	0.6	0.28			
jigr1	DRSC13724	0.41	0.61			
jigr1	DRSC15233	0.44	0.46			
jigr1	DRSC22617	-0.11	-0.48			
Su(var)205	DRSC03446	0.4	0.28			
MED28	DRSC15721	-3.7	-3.09			reduced secretion
CG3919	DRSC10389	0.44	0.48			
CG10477	DRSC09732	0.41	0.5			
gkt	DRSC00821	0.27	0.23			
GstD8	DRSC16689	0.4	0.56			
Naa35	DRSC04447	0.16	0.18			
Ir48a	DRSC05301	0.52	0.22			
lectin-46Ca	DRSC06612	-0.09	0.28	0.3	-0.56	
CG9899	DRSC04597	0.36	0.35			
CG8306	DRSC07141	0.04	0.31			
GC1	DRSC15322	-0.12	-0.09			
saturn	DRSC09303	0.23	0.25			
CG16854	DRSC02536	0.22	0.47			
CG31810	DRSC01560	0.41	0.43			

An excerpt of the results above:
Gene	amplicon	z-score, replicate 1	z-score, replicate 2	z-score, replicate 3	z-score, replicate 4	phenotype, replicate 1
Cam	DRSC07354	0.2	0.24			
CG5866	DRSC15900	0.6	0.28			
jigr1	DRSC13724	0.41	0.61			
jigr1	DRSC15233	0.44	0.46			
jigr1	DRSC22617	-0.11	-0.48			
Su(var)205	DRSC03446	0.4	0.28			

The list goes on:
Gene	amplicon	z-score, replicate 1	z-score, replicate 2	z-score, replicate 3	z-score, replicate 4	phenotype, replicate 1
CG15880	DRSC00474	0.17	0.15			
CG1632	DRSC17558	0.23	0.27			
CG1632	DRSC18110	0.24	0.66			
Coa7	DRSC20967	-0.07	0.12			
IP3K1	DRSC02734	0.29	0.38			
CG15452	DRSC20523	0.43	0.33			
Prosalpha6	DRSC03401	-6.34	-6.61			reduced secretion
Tsf2	DRSC09751	0.1	0.42			
CG13390	DRSC02261	0.38	0.25			
Dscam3	DRSC14525	0.05	0.19			
Dscam3	DRSC16376	0.34	0.49			
CngA	DRSC06580	-0.09	-0.17			
CngA	DRSC07362	-0.13	-0.19			
RpS26	DRSC03420	-4.01	-3.59			reduced secretion
CG7457	DRSC10849	0.37	0.42			
mat	DRSC08376	0.6	0.36			
mat	DRSC22841	-0.15	0.39			
Oseg1	DRSC10776	0.24	0.27			
CG9518	DRSC20194	0.3	0.29			
SMC1	DRSC16846	0.36	0.22			
CG33998	DRSC05747	-0.16	-0.04			
CG14423	DRSC17920	-0.42	-0.66			
CG14301	DRSC14780	0.32	0.17			
trem	DRSC15575	0.32	0.41			
CycD	DRSC20233	-0.76	-2.13			
CG32302	DRSC08340	0.17	0.15			
inc	DRSC17954	0.4	0.36			
inc	DRSC18512	0.4	0.25	0.05	0.3	
